The list shows a part of the results. Repeats are few or missing, and single values can be far off.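 The apoptosis fraction was the count of cleaved-PARP antibody-stained nuclei relative to all DNA-stained nuclei, imaged in 1,536-well plates. Screening doses were set so most cells survived, and baseline and induced cleaved-PARP levels vary greatly across cell lines.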
System: G361
Test: cleaved PARP positive nuclei fraction relative to DMSO control; melanoma cells; higher = more apoptosis
Conditions: library dose: low library concentration; 72 h

Row | Compound | cleaved PARP positive nuclei fraction
1 | CN(c1ncccc1CNc1nc(Nc2ccc3c(c2)CC(=O)N3)ncc1C(F)(F)F)S(C)(=O)=O + C=CCNC1=C2C[C@@H](C)C[C@H](OC)[C@H](O)[C@@H](C)/C=C(\C)[C@H](OC(N)=O)[C@@H](OC)/C=C\C=C(/C)C(=O)NC(=CC1=O)C2=O [Tanespimycin] (first compound 0.08 µM, partner dose 0.002 µM) | 110%
2 | C[C@]1(O)C[C@@H](c2nc(-c3ccc4ccc(-c5ccccc5)nc4c3)c3c(N)nccn32)C1 + CCN(CC)CCNC(=O)c1c(C)[nH]c(/C=C2\C(=O)Nc3ccc(F)cc32)c1C [sunitinib] (first compound 0.4 µM, partner dose 0.4 µM) | 123%
3 | C[C@]1(O)C[C@@H](c2nc(-c3ccc4ccc(-c5ccccc5)nc4c3)c3c(N)nccn32)C1 + C[C@]1(c2nc3c(C(N)=O)cccc3[nH]2)CCCN1 [Veliparib] (first compound 0.4 µM, partner dose 1.4 µM) | 110%
4 | CCN(CC)CCNC(=O)c1c(C)[nH]c(/C=C2\C(=O)Nc3ccc(F)cc32)c1C [sunitinib] + C[C@]1(c2nc3c(C(N)=O)cccc3[nH]2)CCCN1 [Veliparib] (first compound 0.4 µM, partner dose 1.4 µM) | 115%
5 | CC1(C)CCC(c2ccc(Cl)cc2)=C(CN2CCN(c3ccc(C(=O)NS(=O)(=O)c4ccc(N[C@H](CCN5CCOCC5)CSc5ccccc5)c(S(=O)(=O)C(F)(F)F)c4)cc3)CC2)C1 + CN1CCN(c2ccc3nc(-c4c(N)c5c(F)cccc5[nH]c4=O)[nH]c3c2)CC1 [Dovitinib] (first compound 0.4 µM, partner dose 0.1 µM) | 181%
6 | Cn1sc(=O)n(Cc2ccccc2)c1=O + Cn1c(Nc2ccc(C(F)(F)F)cc2)nc2cc(Oc3ccnc(-c4ncc(C(F)(F)F)[nH]4)c3)ccc21 [CHIR265] (first compound 0.4 µM, partner dose 0.08 µM) | 160%
7 | Cn1cnc2c(F)c(Nc3ccc(Br)cc3Cl)c(C(=O)NOCCO)cc21 [selumetinib] + C#Cc1cccc(Nc2ncnc3cc(OCCOC)c(OCCOC)cc23)c1 [erlotinib] (first compound 0.015 µM, partner dose 0.8 µM) | 80.5%
8 | NC(=O)c1ccc(N(C(N)=O)c2c(F)cccc2F)nc1-c1ccc(F)cc1F + C[C@@H](Oc1cc(-c2cnn(C3CCNCC3)c2)cnc1N)c1c(Cl)ccc(F)c1Cl [Crizotinib] (first compound 0.4 µM, partner dose 0.2 µM) | 83.3%
9 | CCN(CC)CCNC(=O)c1c(C)[nH]c(/C=C2\C(=O)Nc3ccc(F)cc32)c1C [sunitinib] + Nc1ccn([C@@H]2O[C@H](CO)[C@@H](O)C2(F)F)c(=O)n1 [gemcitabine] (first compound 0.4 µM, partner dose 0.0004 µM) | 100%
10 | CC1(C)CCC(c2ccc(Cl)cc2)=C(CN2CCN(c3ccc(C(=O)NS(=O)(=O)c4ccc(N[C@H](CCN5CCOCC5)CSc5ccccc5)c(S(=O)(=O)C(F)(F)F)c4)cc3)CC2)C1 + CS(=O)(=O)CCNCc1ccc(-c2ccc3ncnc(Nc4ccc(OCc5cccc(F)c5)c(Cl)c4)c3c2)o1 [lapatinib] (first compound 0.4 µM, partner dose 0.8 µM) | 225%
11 | CC1(C)CCC(c2ccc(Cl)cc2)=C(CN2CCN(c3ccc(C(=O)NS(=O)(=O)c4ccc(N[C@H](CCN5CCOCC5)CSc5ccccc5)c(S(=O)(=O)C(F)(F)F)c4)cc3)CC2)C1 + CCCS(=O)(=O)Nc1ccc(F)c(C(=O)c2c[nH]c3ncc(Cl)cc23)c1F [PLX4720] (first compound 0.4 µM, partner dose 0.08 µM) | 207%
12 | CN(c1ncccc1CNc1nc(Nc2ccc3c(c2)CC(=O)N3)ncc1C(F)(F)F)S(C)(=O)=O + NC1(c2ccc(-c3nc4ccn5c(=O)[nH]nc5c4cc3-c3ccccc3)cc2)CCC1 [MK2206] (first compound 0.08 µM, partner dose 0.4 µM) | 125%
13 | C[C@@H](N)c1ccc(C(=O)Nc2ccnc3[nH]ccc23)cc1 + Nc1ccn([C@@H]2O[C@H](CO)[C@@H](O)C2(F)F)c(=O)n1 [gemcitabine] (first compound 0.4 µM, partner dose 0.0004 µM) | 104%
14 | CS(=O)(=O)c1ccc(C(=O)Nc2ccc(Cl)c(-c3ccccn3)c2)c(Cl)c1 [vismodegib] + CCCCCCCCc1ccc(CCC(N)(CO)CO)cc1 [fingolimod] (first compound 1 µM, partner dose 2 µM) | 34.1%
15 | C[C@@H](N)c1ccc(C(=O)Nc2ccnc3[nH]ccc23)cc1 + Nc1ncn([C@H]2C[C@H](O)[C@@H](CO)O2)c(=O)n1 [decitabine] (first compound 0.4 µM, partner dose 0.1 µM) | 163%
16 | C[C@]1(O)C[C@@H](c2nc(-c3ccc4ccc(-c5ccccc5)nc4c3)c3c(N)nccn32)C1 + CS(=O)(=O)c1ccc(C(=O)Nc2ccc(Cl)c(-c3ccccn3)c2)c(Cl)c1 [vismodegib] (first compound 0.4 µM, partner dose 1 µM) | 35.4%
17 | C[C@@H](N)c1ccc(C(=O)Nc2ccnc3[nH]ccc23)cc1 + CCCS(=O)(=O)Nc1ccc(F)c(C(=O)c2c[nH]c3ncc(Cl)cc23)c1F [PLX4720] (first compound 0.4 µM, partner dose 0.08 µM) | 120%
18 | CN(c1ncccc1CNc1nc(Nc2ccc3c(c2)CC(=O)N3)ncc1C(F)(F)F)S(C)(=O)=O + O=C(O)c1ccc2c(c1)nc(Nc1cccc(Cl)c1)c1ccncc12 [CX4945] (first compound 0.08 µM, partner dose 0.4 µM) | 100%
19 | NC(=O)c1ccc(N(C(N)=O)c2c(F)cccc2F)nc1-c1ccc(F)cc1F + C=CCNC1=C2C[C@@H](C)C[C@H](OC)[C@H](O)[C@@H](C)/C=C(\C)[C@H](OC(N)=O)[C@@H](OC)/C=C\C=C(/C)C(=O)NC(=CC1=O)C2=O [Tanespimycin] (first compound 0.4 µM, partner dose 0.002 µM) | 130%
20 | Cn1cnc2c(F)c(Nc3ccc(Br)cc3Cl)c(C(=O)NOCCO)cc21 [selumetinib] + Nc1ccn([C@@H]2O[C@H](CO)[C@@H](O)C2(F)F)c(=O)n1 [gemcitabine] (first compound 0.015 µM, partner dose 0.0004 µM) | 147%
21 | C[C@@H](N)c1ccc(C(=O)Nc2ccnc3[nH]ccc23)cc1 + Cn1c(=O)n(-c2ccc(C(C)(C)C#N)cc2)c2c3cc(-c4cnc5ccccc5c4)ccc3ncc21 [NVP-BEZ235] (first compound 0.4 µM, partner dose 0.004 µM) | 134%
22 | Cn1cnc2c(F)c(Nc3ccc(Br)cc3Cl)c(C(=O)NOCCO)cc21 [selumetinib] + Cn1c(Nc2ccc(C(F)(F)F)cc2)nc2cc(Oc3ccnc(-c4ncc(C(F)(F)F)[nH]4)c3)ccc21 [CHIR265] (first compound 0.015 µM, partner dose 0.08 µM) | 288%
23 | NC1(c2ccc(-c3nc4ccn5c(=O)[nH]nc5c4cc3-c3ccccc3)cc2)CCC1 + Clc1ccc(Nc2nnc(Cc3ccncc3)c3ccccc23)cc1 [vatalanib] (first compound 0.4 µM, partner dose 2 µM) | 152%
24 | CCCCCCCCc1ccc(CCC(N)(CO)CO)cc1 [fingolimod] + OCc1c[nH]c2ccccc12 [Indole-3-carbinol] (first compound 2 µM, partner dose 0.8 µM) | 127%
25 | Cn1sc(=O)n(Cc2ccccc2)c1=O + Clc1ccc(Nc2nnc(Cc3ccncc3)c3ccccc23)cc1 [vatalanib] (first compound 0.4 µM, partner dose 2 µM) | 74%
26 | NC(=O)c1ccc(N(C(N)=O)c2c(F)cccc2F)nc1-c1ccc(F)cc1F + CC(=O)c1c(C)c2cnc(Nc3ccc(N4CCNCC4)cn3)nc2n(C2CCCC2)c1=O [palbociclib] (first compound 0.4 µM, partner dose 0.04 µM) | 139%
27 | CC1(C)CCC(c2ccc(Cl)cc2)=C(CN2CCN(c3ccc(C(=O)NS(=O)(=O)c4ccc(N[C@H](CCN5CCOCC5)CSc5ccccc5)c(S(=O)(=O)C(F)(F)F)c4)cc3)CC2)C1 + CNC(=O)c1cc(Oc2ccc(NC(=O)Nc3ccc(Cl)c(C(F)(F)F)c3)cc2)ccn1 [sorafenib] (first compound 0.4 µM, partner dose 0.4 µM) | 164%
28 | NC(=O)c1ccc(N(C(N)=O)c2c(F)cccc2F)nc1-c1ccc(F)cc1F + COc1ccc(C2=N[C@@H](c3ccc(Cl)cc3)[C@@H](c3ccc(Cl)cc3)N2C(=O)N2CCNC(=O)C2)c(OC(C)C)c1 [Nutlin-3] (first compound 0.4 µM, partner dose 0.1 µM) | 133%
29 | C[C@]1(O)C[C@@H](c2nc(-c3ccc4ccc(-c5ccccc5)nc4c3)c3c(N)nccn32)C1 + Cn1c(=O)n(-c2ccc(C(C)(C)C#N)cc2)c2c3cc(-c4cnc5ccccc5c4)ccc3ncc21 [NVP-BEZ235] (first compound 0.4 µM, partner dose 0.004 µM) | 128%
30 | CC1(C)CCC(c2ccc(Cl)cc2)=C(CN2CCN(c3ccc(C(=O)NS(=O)(=O)c4ccc(N[C@H](CCN5CCOCC5)CSc5ccccc5)c(S(=O)(=O)C(F)(F)F)c4)cc3)CC2)C1 + Nc1ncn([C@H]2C[C@H](O)[C@@H](CO)O2)c(=O)n1 [decitabine] (first compound 0.4 µM, partner dose 0.1 µM) | 205%

Given as a markdown table: part of the list above.

| Row | Compound | cleaved PARP positive nuclei fraction |
| --- | --- | --- |
| 11 | CC1(C)CCC(c2ccc(Cl)cc2)=C(CN2CCN(c3ccc(C(=O)NS(=O)(=O)c4ccc(N[C@H](CCN5CCOCC5)CSc5ccccc5)c(S(=O)(=O)C(F)(F)F)c4)cc3)CC2)C1 + CCCS(=O)(=O)Nc1ccc(F)c(C(=O)c2c[nH]c3ncc(Cl)cc23)c1F [PLX4720] (first compound 0.4 µM, partner dose 0.08 µM) | 207% |
| 12 | CN(c1ncccc1CNc1nc(Nc2ccc3c(c2)CC(=O)N3)ncc1C(F)(F)F)S(C)(=O)=O + NC1(c2ccc(-c3nc4ccn5c(=O)[nH]nc5c4cc3-c3ccccc3)cc2)CCC1 [MK2206] (first compound 0.08 µM, partner dose 0.4 µM) | 125% |
